Measurements: PubChem BioAssay AID1487 (National Center for Advancing Translational Sciences (NCATS), 2009)
Values joined by “and” are separate entries in the source; they are usually repeats but may differ in a detail not shown here. Equal entries are not always repeated. In all, about 200,000 compounds went through this assay and about 25 (0.01%) were called active. This list was built around the results that the source calls inconclusive (neither active nor inactive); the mix of calls is not that of the screen. Calls follow the shape of the dose curve; as a rule, active = well fitted inhibition curve with a large enough effect in the signal ratio, with a control signal flat (not every such curve was filed as active); inconclusive = small, poorly fitted or top-dose-only effect, or effect the other way, or a change in a side signal; inactive = flat fitted curve, though single readings scatter; the % refers to the signal ratio. Potencies beside an inconclusive call are fits to weak or partial responses and may not hold up.

Assay: qHTS Assay for Modulators of Lamin A Splicing
Details: HeLa LMNA splicing GFP/RFP minigene ratio, 48 h; ratio change, negative = inhibition: at 46.1 µM (top of the series) unless noted
Text: NCGC Assay Overview: Hutchinson-Gilford Progeria Syndrome (HGPS) is a pediatric premature aging disease caused by a spontaneous mutation in the lamin A/C (LMNA) gene. The mutation activates a cryptic splice site in the LMNA pre-mRNA which results in production of a pre-lamin A protein that cannot be processed properly. The mutant protein accumulates in the nucleus and negatively affects numerous cellular functions. Correction of the splicing defect in HGPS patient cells using a targeted oligonucleotide (exo11) leads to reversal of the cellular disease phenotypes. To identify small molecule modulators of aberrant LMNA splicing, a homogenous assay was constructed in HeLa cells that used a GFP containing minigene to report on correction of aberrant splicing in lamin A and a RFP (DsRed2) to report on cell viability, uniformity and nonspecific effects on the assay signal. This assay was adapted to laser-scanning microplate cytometry (Acumen, TTP Labtech) where miniaturization of the assay to a 1,536-well plate format was possible. References: Bowen, W. P.; Wylie, P. G. Application of Laser-Scanning Fluorescence Microplate Cytometry in High Content Screening. Assay Drug Dev Technol 2006;4:209-221. Scaffidi P, Misteli T. Reversal of the cellular phenotype in the premature aging disease Hutchinson-Gilford progeria syndrome. Nat.
NCGC Assay Protocol Summary: Reagents/Controls: Stable clones expressing DsRed2 and lamin A-EGFP were generated by Cell and Molecular Technologies in S3 HeLa cells. HeLa cells were prepared for the assay when they were 70-90% confluent. The cells were counted and resuspended in Opti-MEM I (no phenol red; Gibco), 2% FBS, 1% penicillin/ streptomycin (Gibco) at concentration of 120 cells/uL concentration. The suspension was passed through a Falcon basket filter with pore size 40um (Beckton Dickson). Control titrations: column […] 1536-well plate contained a sixteen point titration (1:2 dilutions) in duplicate of ancitabine (Sigma: A8598) beginning at 40 uM final concentration. Column 2 contained a sixteen point titration (1:2 dilutions) of cycloheximide beginning at 1.4 mM final concentration. Column 3 contained ancitabine at 40 uM and column 4 contained was the vehicle control (0.5% DMSO final concentration). Assay Steps: 5 uL of HeLa cells were plated in Aurora LoBase black clear bottom (cyclic-olefin polymer) 1536-well plates at a final density of 600 cells/well. Controls and library compounds were added with a 1536-well pin array using the Kalypsys pin-tool. The plates were then incubated for 48 hrs in a cell-culture incubator (37 °C; 5% CO2, 98% humidity). Following incubation the plates were read on the Acumen Explorer using the 488 nm laser. Data was collected on objects between 10 and 100 um in size. Cell objects were defined by a 15 um width x 10 um depth filter. The ratio of the total object intensity in PMT1 (500-530 nm emission; GFP) over PMT3 (575-640 nm emission; RFP) was calculated for analysis. Keywords: NIH Roadmap, MLSCN, MLI, MLSMR, qHTS, NCGC, lamin A, Progeria, RNA splicing.
% is scaled to controls: 0 for no effect and ±100 for the full control effect; potency is read from the fitted curve at half-maximal effect.

Compound	ratio change, negative = inhibition	Potency
Cc1cc(C(F)(F)F)c2c(n1)sc1c(O)cc(=O)[nH]c12	inactive	
CCCCCCCCCCCCCCCCCCOC[C@H](COP(=O)([O-])OCC[N+](C)(C)C)OC		inconclusive: 11.2 µM [cytotoxic, partial curve]
CCc1ccc(NC(=O)Cn2c3[n+](c4c(F)c(F)ccc42)CCCCC3)cc1	inconclusive: -24.7% [at 46 µM]	
CCOc1ccc(CNC(=O)c2ccc3nc(C(C)C)oc3c2)cc1	inactive	
Cc1cc(C)c(-c2c(O)c3cnn(-c4ccccc4)c3[nH]c2=O)c(C)c1	inconclusive: -32.3%	
FC(F)Oc1ccc(NC(=S)NCc2ccccc2)cc1	inactive	
Oc1ccc2ccccc2c1CN1CCCC1	inconclusive: 2.57% [at 46 µM]	
O=Cc1ccc(Sc2nnc(-c3ccccc3)o2)c([N+](=O)[O-])c1	inconclusive: 219%	
Cc1oc2ncnc(N3CCOCC3)c2c1C(=O)N(Cc1ccccc1)C(C)C	inactive	
N/C(=N/OS(=O)(=O)c1ccc([N+](=O)[O-])cc1)c1ccncc1	inconclusive: 14% [at 46 µM]	
CC(/C=C1\SC(=S)N(NC(=O)c2cccc(O)c2)C1=O)=C\c1ccccc1		inconclusive: 35.5 µM [falling, single point]
CC(C)c1ccc(C(=O)Nc2cc(-c3ccccc3F)nn2-c2ccccc2)cc1	inconclusive: -12.8% [at 46 µM]	
O=C1C2C3C=CC(CC3)C2C(=O)N1/N=C/c1ccc(O)c(O)c1 (stereo unspecified)	inconclusive: -17.4%	
O=C1/C(=C/c2ccco2)Oc2c1ccc(O)c2CN1CCCCC1	inactive	
COc1cc(-c2nc3ccc(N4CCN(C)CC4)cc3[nH]2)cc(OC)c1OC	inconclusive: -57.7% [at 46 µM]	
CCOc1nc(C)cc(COC)c1C(N)=O	inconclusive: 9.81% [at 46 µM]	
C=CCNCCCOc1ccc(Cl)cc1C(C)(C)C	inconclusive: -0.347% [at 46 µM]	
Cc1ccc(-c2nc(CCN3C(=O)c4ccccc4C3=O)cs2)cc1		inconclusive: 11.2 µM [inhibitor, single point]
Cc1cccc(C(=O)N2CCc3cc(CNS(=O)(=O)c4ccc(Cl)s4)ccc32)c1	inconclusive: -18.3% [at 46 µM]	
CC1(C)Cc2c(sc3c2c(=N)n(Cc2ccco2)c(=O)n3Cc2ccc(Cl)cc2)CO1	inactive	
CC(Sc1ncc(C(F)(F)F)cc1Cl)C(=O)NC(N)=O (stereo unspecified)	inconclusive: -6.73% [at 9.22 µM]	
Cc1ccc(C(=O)c2cnc3cc4c(cc3c2S(=O)(=O)c2ccccc2)OCCO4)cc1		inconclusive: 22.4 µM [inhibitor, partial curve, poor fit]

As entered above.
Value for Cc1cccc(C(=O)N2CCc3cc(CNS(=O)(=O)c4ccc(Cl)s4)ccc32)c1 under ratio change, negative = inhibition: inconclusive: -18.3% [at 46 µM]
Value for CC1(C)Cc2c(sc3c2c(=N)n(Cc2ccco2)c(=O)n3Cc2ccc(Cl)cc2)CO1 under ratio change, negative = inhibition: inactive
Value for O=C1/C(=C/c2ccco2)Oc2c1ccc(O)c2CN1CCCCC1 under ratio change, negative = inhibition: inactive

Next entries:

Compound	ratio change, negative = inhibition	Potency
Cc1ccn2c(C(=O)N/N=C\c3cccs3)c(C)nc2c1	inactive	
Cn1c(=O)c2c(nc(SCCCC#N)n2Cc2ccccc2F)n(C)c1=O	inactive	
Cc1nc(-c2ccc(Cl)cc2)sc1CCNC(=O)c1cccs1	inconclusive: 36.3% [at 46 µM]	
CCNC(=O)Nn1c(-c2ccccc2)nc2ccccc2c1=O	inactive	
C[C@]12CC[C@H]3c4ccc(O)cc4CC[C@@H]3[C@H]1CC[C@@H]2OP(=O)(O)O	inconclusive: -4.63%	
COc1ccc(-c2c(C)nn(-c3ccccc3)c2N)cc1	inactive	
C(=N\n1cnnc1)/c1ccc(OCc2ccccc2)cc1	inactive	
Cc1ccc(C(=O)N(CC(=O)NC2CCCCC2)c2ccccc2F)s1	inconclusive: 6.73% [at 46 µM]	
O=C(c1cc2c(s1)-c1ccccc1OC2)N1CCN(c2ccccc2)CC1	inactive	
CC1(C)CC(=O)C(C=Nc2ccccc2C(=O)O)=C(O)C1	inactive	
CCCCN(C)S(=O)(=O)c1ccc(C(=O)N=c2sc3cc(NC(C)=O)ccc3n2C)cc1	inactive	
Cc1ccc(NC(=S)NCC2CCCO2)cc1 (stereo unspecified)	inactive	
COc1cc(C(C#N)N2CCOCC2)ccc1O (stereo unspecified)	inactive	
Cc1ccc(NC(=O)C(=O)NCCN2CCN(S(=O)(=O)c3ccccc3)CC2)cc1C	inconclusive: -2.22% [at 46 µM]	
CN1C(=O)/C(=C\C(=O)c2cccs2)c2ccccc21	inconclusive: -63.5% [at 46 µM]	
COc1cc(/C=C/CN2CCN(CCC(C)C)C(CCO)C2)ccc1O (stereo unspecified)	inconclusive: 6.72% [at 46 µM]	
Cc1c(Cc2ccccc2)c(=O)oc2c(C)c(OCC(=O)Nc3ccc(C#N)cc3)ccc12	inactive	
CC(C)N1CCN(CC#Cc2ccccc2)CC1CCO (stereo unspecified)	inconclusive: -1.6% [at 46 µM]	
CCOC(=O)c1[nH]c2ccc(Br)cc2c1NC(=O)CCN1CCCC(C)(C)C1	inconclusive: -12.5%	
Fc1cc(Br)ccc1NC(=S)Nc1cccnc1	inconclusive: 2.18% [at 46 µM]	
CCN(CC)C(=O)c1sc(NC(=O)Cc2ccccc2)c(C#N)c1C	inactive	
CCN1CCN(P2(=O)C=C(c3ccccc3)OC(c3ccccc3)=C2)CC1	inactive	

Compound	ratio change, negative = inhibition	Potency
O=C(O)C(C(=O)/C=C/c1ccco1)=C1SCCS1	inactive	
CC(C)(C)C(=O)NCCc1csc2nc(-c3ccc(F)cc3)nn12	inactive	
COc1ccc(-c2nn(C)c(=O)c3ccccc23)cc1CNS(C)(=O)=O	inconclusive: -35.2%	
CSc1ccc(CN(C)CC(=O)Nc2c(F)cccc2F)cc1	inconclusive: -17.6% [at 46 µM]	
N#CC1=C(N)OC2=C(C(=O)CCC2)[C@]12C(=O)N(CC(N)=O)c1ccccc12	inactive	
Nc1ccc(O)c(C(=O)O)c1	inconclusive: -21.6%	
Cc1ccc(C(=O)COC(=O)CNC(=O)c2cccs2)cc1C	inconclusive: 22.2% [at 46 µM]	
CC(Nc1cccc2ccccc12)C(=O)N/N=C/c1ccc([N+](=O)[O-])cc1 (stereo unspecified)		inconclusive: 35.5 µM [falling, single point]
Cc1nn(C)c(C(=O)N/N=C/c2ccc(C(F)(F)F)cc2)c1[N+](=O)[O-]	inconclusive: 6.22%	
CCC(C)(C)NC(=O)C(c1cccn1C)N(C(=O)Cn1nnc2ccccc21)c1ccc(OC)cc1OC (stereo unspecified)	inactive	
CCOC(=O)c1ccc2c(c1)n(CC)c(C)[n+]2CC	inconclusive: 40.8% [at 46 µM]	
CCSc1nc(CC)c2c(c1C#N)CCCC2	inconclusive: 8.06%	
CN(C)CCCNC(=O)c1ccc(Cl)c(S(=O)(=O)N(C)c2ccccc2)c1	inactive	
CCOc1ccc(C(=S)N2CCOCC2)cc1	inactive	
CN(C)CCCN1c2ccccc2CCc2ccc(Cl)cc21	inconclusive: -27.9% and inconclusive: -18.6%	
COc1ccc(NC(=O)c2noc(C(C)C)c2[N+](=O)[O-])cc1	inconclusive: 35.7% [at 46 µM]	
O=C(c1ccccc1)c1ccc2nc(-c3ccc(NC(=O)c4ccccc4F)cc3)[nH]c2c1	inconclusive: 14.6%	
O=C(Nc1ncc2c(n1)-c1ccccc1OC2)c1ccc(F)cc1	inconclusive: 15.6% [at 46 µM]	
CCC(=O)N1N=C(c2ccc(C)o2)CC1c1ccc(Br)cc1 (stereo unspecified)	inactive	
CCOc1cc(CNC(=O)NC2COc3ccc(OC)cc3C2)cc(OCC)c1OCC (stereo unspecified)	inconclusive: 5.48% [at 46 µM]	
Cc1nnsc1-c1nc2ccccc2[nH]1	inactive	
CCc1ccc(C(=O)Cn2ncc(Cl)c(Cl)c2=O)cc1	inconclusive: -41.3%	

Compound	ratio change, negative = inhibition	Potency
Cc1nn(CC(=O)NCc2cccc3ccccc23)c(=O)c2ccccc12		inconclusive: 35.5 µM [cytotoxic, single point]
O=C(COc1ccc2ccccc2c1)NCCNC(=O)COc1ccc2ccccc2c1	inactive	
CCc1ccc(NCc2nc(-c3ccccc3)no2)cc1	inconclusive: 0.478%	
CN(C)S(=O)(=O)c1ccc(C(=O)OCC(=O)NCc2ccccc2)cc1	inconclusive: -0.0597% [at 46 µM]	
COc1ccc2nc(C)cc(Nc3ccccc3O)c2c1	inconclusive: -15.5% [at 46 µM]	
Cc1nc(NCCN2CCOCC2)c2oc3ccccc3c2n1	inactive	
CCCCc1ccc(Nc2nc(CCC)cc(=O)[nH]2)cc1	inconclusive: -31.6%	
O=C(Nc1nnc(-c2ccco2)o1)c1cccc(N2C(=O)CCC2=O)c1	inconclusive: 22.8% [at 46 µM]	
Cc1ccc(C)c2nc(N3CCCC3)c(C#N)cc12	inconclusive: 5.66%	
Cc1cc(C)c(NC(=S)NC(=O)c2ccc(-c3ccccc3)cc2)c(C)c1		inconclusive: 14.1 µM [falling, partial curve]
CCOc1ccc(CCNC(=O)CN2N=C(c3ccccc3)CCC2=O)cc1OCC	inconclusive: 2.19% [at 46 µM]	
CCOC(=O)c1cccc(NC(=O)CSc2nnc(COc3ccccc3C)o2)c1	inconclusive: -0.861%	
O=C(NCc1ccc2c(c1)OCO2)c1cccc2c1C(=O)N(C1CCCCC1)C2	inactive	
COC(=O)c1c(C)oc2ccc(NS(=O)(=O)c3cc(OC)ccc3OC)cc12		inconclusive: 11.2 µM [fluorescent, partial curve]
Nc1ccc(-n2nncc2-c2ccc(Cl)cc2)cc1	inactive	
COc1ccc(CNC(=O)c2ccc3c(c2)nc2n3CCOC2)c(OC)c1	inconclusive: -1.01% [at 46 µM]	
Cc1cc(NC(=O)C2=C(O)c3ccccc3S(=O)(=O)N2C)no1	inactive	
COc1ccc(NC2=NCC(Cc3ccc(Br)cc3)S2)cc1 (stereo unspecified)		inconclusive: 12.6 µM [cytotoxic, single point]
Cc1cccc(N(C)S(=O)(=O)c2ccc3[nH]c(=O)c(=O)[nH]c3c2)c1	inactive	
Cc1ccccc1NC(=O)c1nn(-c2ccc(F)c(F)c2)ccc1=O	inconclusive: -3.08% [at 46 µM]	
